Test results published in patent US5560907A, “Whitening embellisher” (Eisai Co., Ltd., priority 1992, dated 1996).

Tested on: B16 melanoma cells derived from a mouse
Test: Restraint of melanin production in cultured B16 melanoma cells
Settings: sample concentrations 1×10^-4 to 3×10^-4 %

Q: For CC(=O)CCC=C(C)CCC=C(C)CCC=C(C)CCC=C(C)C [teprenone, geranylgeranylacetone], which amount of mitochondria is on record?
A: tended to increase

Q: What about the “amount of proteins in the B16 melanoma cells” value of the same molecule?
A: did not change
